In the supplement of paper PMC11732987, “Enantioselective OTUD7B fragment discovery through chemoproteomics screening and high-throughput optimisation” (Communications Chemistry, 2025):
This is one part of the list. The data scatter; read single values as rough.

Amino acid sequences for entries named in this document (tags omitted). A change or cut given only in a name is not applied to a line headed by its entry.
UniProt Q6PGP7, whole entry, looked up: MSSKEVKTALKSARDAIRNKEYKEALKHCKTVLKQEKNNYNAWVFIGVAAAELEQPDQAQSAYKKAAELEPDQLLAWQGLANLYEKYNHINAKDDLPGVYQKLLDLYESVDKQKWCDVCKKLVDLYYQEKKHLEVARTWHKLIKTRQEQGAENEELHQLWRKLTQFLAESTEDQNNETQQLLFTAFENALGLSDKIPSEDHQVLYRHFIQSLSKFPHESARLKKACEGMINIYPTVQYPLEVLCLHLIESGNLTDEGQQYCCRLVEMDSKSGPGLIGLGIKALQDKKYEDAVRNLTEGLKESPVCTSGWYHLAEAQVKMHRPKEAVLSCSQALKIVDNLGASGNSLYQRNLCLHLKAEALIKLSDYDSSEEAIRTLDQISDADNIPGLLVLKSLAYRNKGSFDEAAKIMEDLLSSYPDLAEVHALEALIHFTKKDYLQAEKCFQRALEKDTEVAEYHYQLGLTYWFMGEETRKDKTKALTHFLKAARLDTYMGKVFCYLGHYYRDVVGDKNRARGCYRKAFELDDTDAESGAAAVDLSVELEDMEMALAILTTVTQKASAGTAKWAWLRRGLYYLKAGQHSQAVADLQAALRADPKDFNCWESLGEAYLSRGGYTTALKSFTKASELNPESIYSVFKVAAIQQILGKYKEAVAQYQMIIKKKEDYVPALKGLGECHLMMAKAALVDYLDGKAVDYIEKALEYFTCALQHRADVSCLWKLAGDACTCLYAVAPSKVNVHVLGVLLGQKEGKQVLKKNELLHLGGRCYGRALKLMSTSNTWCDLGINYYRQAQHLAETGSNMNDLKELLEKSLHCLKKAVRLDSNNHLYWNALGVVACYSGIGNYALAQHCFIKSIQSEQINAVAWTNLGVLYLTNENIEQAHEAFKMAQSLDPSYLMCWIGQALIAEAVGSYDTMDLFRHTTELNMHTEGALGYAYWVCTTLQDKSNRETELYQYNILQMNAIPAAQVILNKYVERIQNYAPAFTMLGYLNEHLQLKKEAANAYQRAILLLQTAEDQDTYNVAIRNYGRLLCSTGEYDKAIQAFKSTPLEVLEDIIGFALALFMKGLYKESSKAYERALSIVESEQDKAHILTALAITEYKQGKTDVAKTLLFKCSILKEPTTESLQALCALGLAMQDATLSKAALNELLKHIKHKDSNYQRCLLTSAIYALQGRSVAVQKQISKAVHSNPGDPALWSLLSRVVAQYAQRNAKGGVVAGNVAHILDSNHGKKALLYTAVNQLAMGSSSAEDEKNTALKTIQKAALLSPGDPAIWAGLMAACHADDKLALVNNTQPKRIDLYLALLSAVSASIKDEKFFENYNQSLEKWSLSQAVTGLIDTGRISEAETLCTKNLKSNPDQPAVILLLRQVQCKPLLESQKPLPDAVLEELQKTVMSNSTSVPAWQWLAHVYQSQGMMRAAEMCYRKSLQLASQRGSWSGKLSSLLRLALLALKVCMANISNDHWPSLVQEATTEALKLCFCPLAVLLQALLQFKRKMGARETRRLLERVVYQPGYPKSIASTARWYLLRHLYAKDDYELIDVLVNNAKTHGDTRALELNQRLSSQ
UniProt Q8IWV8: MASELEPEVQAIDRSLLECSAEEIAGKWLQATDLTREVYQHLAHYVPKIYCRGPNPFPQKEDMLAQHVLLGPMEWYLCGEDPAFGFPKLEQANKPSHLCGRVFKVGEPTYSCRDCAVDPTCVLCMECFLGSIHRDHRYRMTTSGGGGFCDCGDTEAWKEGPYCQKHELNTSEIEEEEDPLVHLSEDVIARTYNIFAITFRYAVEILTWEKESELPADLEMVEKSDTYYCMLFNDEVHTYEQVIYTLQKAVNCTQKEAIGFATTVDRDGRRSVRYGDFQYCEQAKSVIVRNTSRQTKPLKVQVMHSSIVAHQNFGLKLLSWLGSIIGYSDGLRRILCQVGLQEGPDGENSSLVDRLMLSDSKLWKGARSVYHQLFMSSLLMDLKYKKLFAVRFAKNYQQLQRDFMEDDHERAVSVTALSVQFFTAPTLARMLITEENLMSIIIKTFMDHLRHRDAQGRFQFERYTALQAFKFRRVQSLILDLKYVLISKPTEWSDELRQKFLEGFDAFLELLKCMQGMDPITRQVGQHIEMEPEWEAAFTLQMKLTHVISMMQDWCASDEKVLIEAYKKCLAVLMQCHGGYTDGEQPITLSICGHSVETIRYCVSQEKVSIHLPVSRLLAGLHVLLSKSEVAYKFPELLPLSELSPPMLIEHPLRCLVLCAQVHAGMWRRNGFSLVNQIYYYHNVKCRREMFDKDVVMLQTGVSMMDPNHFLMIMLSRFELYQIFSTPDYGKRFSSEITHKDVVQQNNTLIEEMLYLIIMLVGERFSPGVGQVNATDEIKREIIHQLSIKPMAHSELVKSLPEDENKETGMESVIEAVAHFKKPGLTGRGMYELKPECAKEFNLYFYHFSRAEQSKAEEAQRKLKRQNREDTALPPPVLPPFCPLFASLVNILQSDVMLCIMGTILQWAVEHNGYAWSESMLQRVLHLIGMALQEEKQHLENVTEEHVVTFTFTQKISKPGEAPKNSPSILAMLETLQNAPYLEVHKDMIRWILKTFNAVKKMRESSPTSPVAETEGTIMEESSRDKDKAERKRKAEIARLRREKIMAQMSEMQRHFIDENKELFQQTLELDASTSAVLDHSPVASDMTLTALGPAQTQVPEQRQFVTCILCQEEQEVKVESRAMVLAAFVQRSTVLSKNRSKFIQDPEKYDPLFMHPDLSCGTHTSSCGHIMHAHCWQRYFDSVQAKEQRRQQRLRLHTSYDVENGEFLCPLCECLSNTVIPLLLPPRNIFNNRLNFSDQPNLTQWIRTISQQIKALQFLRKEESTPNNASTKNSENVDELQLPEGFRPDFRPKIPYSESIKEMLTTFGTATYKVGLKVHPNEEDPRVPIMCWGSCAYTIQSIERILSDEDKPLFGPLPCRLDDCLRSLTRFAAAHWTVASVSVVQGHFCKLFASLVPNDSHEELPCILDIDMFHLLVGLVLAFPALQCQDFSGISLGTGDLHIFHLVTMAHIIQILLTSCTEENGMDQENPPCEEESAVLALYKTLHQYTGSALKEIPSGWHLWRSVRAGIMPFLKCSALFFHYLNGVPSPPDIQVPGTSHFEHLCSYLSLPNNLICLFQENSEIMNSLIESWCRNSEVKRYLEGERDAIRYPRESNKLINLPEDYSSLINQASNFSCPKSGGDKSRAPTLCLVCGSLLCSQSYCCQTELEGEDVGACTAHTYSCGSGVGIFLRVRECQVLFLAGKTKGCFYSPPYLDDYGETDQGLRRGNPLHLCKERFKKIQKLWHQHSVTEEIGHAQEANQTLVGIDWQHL
UniProt Q9H832: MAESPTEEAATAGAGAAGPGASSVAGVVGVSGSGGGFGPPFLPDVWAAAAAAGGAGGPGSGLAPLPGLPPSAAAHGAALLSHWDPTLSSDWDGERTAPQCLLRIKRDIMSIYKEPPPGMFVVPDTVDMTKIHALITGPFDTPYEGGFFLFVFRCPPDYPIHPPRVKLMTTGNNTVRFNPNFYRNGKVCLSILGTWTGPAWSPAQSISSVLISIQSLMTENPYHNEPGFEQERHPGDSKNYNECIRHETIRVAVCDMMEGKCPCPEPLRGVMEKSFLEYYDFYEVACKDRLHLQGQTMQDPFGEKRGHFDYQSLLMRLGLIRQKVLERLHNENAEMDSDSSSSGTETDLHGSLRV
UniProt Q9BSJ2, whole entry, looked up: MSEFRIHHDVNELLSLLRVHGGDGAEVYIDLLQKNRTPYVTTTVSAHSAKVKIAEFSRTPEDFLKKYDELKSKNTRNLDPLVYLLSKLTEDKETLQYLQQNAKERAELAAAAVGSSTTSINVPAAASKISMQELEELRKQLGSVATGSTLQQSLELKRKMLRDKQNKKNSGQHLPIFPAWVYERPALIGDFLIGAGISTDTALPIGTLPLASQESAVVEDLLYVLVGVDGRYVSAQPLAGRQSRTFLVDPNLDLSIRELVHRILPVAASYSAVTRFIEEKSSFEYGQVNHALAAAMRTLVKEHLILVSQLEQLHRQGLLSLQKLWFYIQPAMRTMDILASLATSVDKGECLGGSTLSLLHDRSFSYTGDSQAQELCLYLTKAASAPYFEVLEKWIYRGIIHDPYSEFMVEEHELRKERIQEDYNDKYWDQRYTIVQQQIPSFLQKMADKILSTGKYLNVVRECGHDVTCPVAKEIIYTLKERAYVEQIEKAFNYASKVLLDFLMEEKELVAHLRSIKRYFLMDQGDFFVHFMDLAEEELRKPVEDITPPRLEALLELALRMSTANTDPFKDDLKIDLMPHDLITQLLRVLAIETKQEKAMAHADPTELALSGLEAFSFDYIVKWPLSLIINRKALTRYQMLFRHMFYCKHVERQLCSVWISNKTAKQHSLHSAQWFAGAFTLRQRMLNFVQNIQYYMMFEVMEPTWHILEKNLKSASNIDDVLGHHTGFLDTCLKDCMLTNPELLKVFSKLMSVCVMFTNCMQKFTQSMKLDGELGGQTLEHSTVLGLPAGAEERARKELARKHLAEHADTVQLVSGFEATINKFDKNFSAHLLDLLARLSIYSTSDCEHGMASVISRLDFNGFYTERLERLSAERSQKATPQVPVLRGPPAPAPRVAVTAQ
UniProt O95155, whole entry, looked up: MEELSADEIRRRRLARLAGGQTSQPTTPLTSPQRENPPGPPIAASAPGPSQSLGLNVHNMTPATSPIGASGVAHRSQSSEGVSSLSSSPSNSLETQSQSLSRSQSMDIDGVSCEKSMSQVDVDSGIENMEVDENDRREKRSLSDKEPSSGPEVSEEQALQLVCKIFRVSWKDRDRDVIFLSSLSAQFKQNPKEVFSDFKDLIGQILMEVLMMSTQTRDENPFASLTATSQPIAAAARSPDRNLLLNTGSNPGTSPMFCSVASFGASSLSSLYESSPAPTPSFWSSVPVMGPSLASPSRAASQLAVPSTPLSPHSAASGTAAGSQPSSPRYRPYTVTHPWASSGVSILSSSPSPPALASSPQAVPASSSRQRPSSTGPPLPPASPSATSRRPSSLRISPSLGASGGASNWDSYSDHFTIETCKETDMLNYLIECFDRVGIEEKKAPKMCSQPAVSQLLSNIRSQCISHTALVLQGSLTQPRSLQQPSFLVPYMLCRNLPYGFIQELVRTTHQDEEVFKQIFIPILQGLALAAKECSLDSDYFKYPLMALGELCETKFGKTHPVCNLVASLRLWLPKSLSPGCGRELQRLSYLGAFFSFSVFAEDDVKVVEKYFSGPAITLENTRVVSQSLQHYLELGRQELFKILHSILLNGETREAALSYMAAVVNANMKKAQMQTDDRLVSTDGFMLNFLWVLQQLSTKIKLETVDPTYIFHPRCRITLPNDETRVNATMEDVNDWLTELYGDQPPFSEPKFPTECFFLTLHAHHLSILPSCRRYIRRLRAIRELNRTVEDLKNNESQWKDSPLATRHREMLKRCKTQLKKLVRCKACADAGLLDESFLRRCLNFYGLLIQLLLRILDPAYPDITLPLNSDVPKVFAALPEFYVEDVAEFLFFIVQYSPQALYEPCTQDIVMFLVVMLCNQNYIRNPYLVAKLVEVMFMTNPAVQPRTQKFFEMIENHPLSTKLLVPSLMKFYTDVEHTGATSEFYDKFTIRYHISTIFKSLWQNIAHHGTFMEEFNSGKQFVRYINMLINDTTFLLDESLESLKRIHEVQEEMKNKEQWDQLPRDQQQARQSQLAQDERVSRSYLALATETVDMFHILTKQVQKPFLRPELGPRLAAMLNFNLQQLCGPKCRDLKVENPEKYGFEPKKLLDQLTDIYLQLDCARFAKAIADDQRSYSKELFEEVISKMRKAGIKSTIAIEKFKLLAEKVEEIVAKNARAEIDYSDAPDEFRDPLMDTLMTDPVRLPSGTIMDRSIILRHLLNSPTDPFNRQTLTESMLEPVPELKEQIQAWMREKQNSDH
UniProt Q9BZL1: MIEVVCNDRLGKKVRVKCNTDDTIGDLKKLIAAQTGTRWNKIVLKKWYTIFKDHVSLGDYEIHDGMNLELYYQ

compound: ClCC(=O)N[C@H]1CCCc2ccccc12; assay: log2 mean competition ratio of IA-DTB cysteine labelling (DMSO/compound) (log2 ratio); higher = stronger cysteine engagement by compound; details: 200 µM; treatment time: 4 h; cell line lysate: HEK293T
Description: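 IA-DTB competitive cysteine chemoproteomics in HEK293T RIPA lysate. Lysates were treated with compound 29 or 30 at 50 or 200 µM for 4 h, then IA-DTB (500 µM, 1 h), trypsin-digested, NeutrAvidin-enriched and analysed by diaPASEF. Competition ratio = intensity DMSO / intensity compound (n=4 treated, n=64 DMSO); binding: mean log2 CR ≥ 1 and p ≤ 0.05 plus QC filters. Target is the cysteine site.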

Row | Target | log2 mean competition ratio
1 | TTC37 C1422 (UniProt Q6PGP7) | -0.0411
2 | UBR2 C602 (UniProt Q8IWV8) | -0.166
3 | TUT4 C572 (UniProt Q5TAX3) | -0.167
4 | UBE2Z C100 (UniProt Q9H832) | -0.318
5 | TTC37 C1031 (UniProt Q6PGP7) | -0.0728
6 | TUBGCP2 C737 (UniProt Q9BSJ2) | 0.0399
7 | UBA1 C234 (UniProt P22314) | 0.377
8 | UBAP2 C208 | 0.218
9 | UBE4B C581 (UniProt O95155) | -0.0604
10 | UBL5 C18 (UniProt Q9BZL1) | 0.00245
